Assay results published in patent publication US20240010724A1.
No constants are given. Whether binding was seen depends on the method and setting. A result given as binding can be weak or reduced; the word gives no strength.

Biological target: rhCDH19(44-141)::caCDH19(141-770) (rhesus macaque/dog chimera)
Experiment: flow cytometry, transfected 293T cells, 2 mM CaCl2

B1: anti-CDH19 antibody 13589 (clone 4A9) (antibody, human IgG1, lambda, V domains shown)
VH: QVQLQESGPGLVKPSETLSLTCTVSGGSISGYYWSWIRQPPGKGLEWFAYFSYSGSTNYNPSLKSRVTLSVDTSKNQFSLKLSSVTAADTAVYYCARNWAFHFDFWGQGTLVTVSS
VL: QSVLTQPPSVSGAPGQRVTISCTGSSSNIGTGYAVHWYQQFPGTAPKLLIYGNNNRPSGVPDRFSGSKSGTSASLAITGLQAEDEADYYCQSYDSRLSGWVFGGGTKLTVLG
B1 was tested, and the binding was “binds”.
